Test results taken from paper PMC3435375.
These are yes or no findings as the source states them, for the method shown. In cells and extracts the contact can be indirect. Some entries that bind do so weakly or less than the wild type. Tags and fused reporters may be left off the sequences shown.

Protein sequences, listed by entry. Tags and fused reporters are not part of them.
UniProt O00522: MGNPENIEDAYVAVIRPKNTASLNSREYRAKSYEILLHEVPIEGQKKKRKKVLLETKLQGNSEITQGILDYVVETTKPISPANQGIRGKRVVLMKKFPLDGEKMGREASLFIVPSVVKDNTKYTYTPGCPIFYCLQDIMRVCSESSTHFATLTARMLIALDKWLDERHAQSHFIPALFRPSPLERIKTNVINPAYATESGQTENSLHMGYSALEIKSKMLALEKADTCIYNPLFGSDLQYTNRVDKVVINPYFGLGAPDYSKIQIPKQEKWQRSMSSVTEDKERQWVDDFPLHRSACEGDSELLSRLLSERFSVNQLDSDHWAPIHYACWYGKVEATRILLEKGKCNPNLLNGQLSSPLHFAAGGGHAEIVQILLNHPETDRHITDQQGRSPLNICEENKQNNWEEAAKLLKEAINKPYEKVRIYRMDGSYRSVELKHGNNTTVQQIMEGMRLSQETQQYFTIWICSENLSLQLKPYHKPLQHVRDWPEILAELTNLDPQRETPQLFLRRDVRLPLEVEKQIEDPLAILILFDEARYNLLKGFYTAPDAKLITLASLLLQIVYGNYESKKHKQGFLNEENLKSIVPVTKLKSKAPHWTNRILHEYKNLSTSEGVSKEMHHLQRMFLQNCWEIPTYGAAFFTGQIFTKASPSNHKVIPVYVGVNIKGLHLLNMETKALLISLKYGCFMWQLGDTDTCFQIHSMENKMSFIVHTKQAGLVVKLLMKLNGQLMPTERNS

Target: T1, GST-Nd1-L (496-642) fusion protein (mouse) (UniProt Q920Q8)
T1 sequence: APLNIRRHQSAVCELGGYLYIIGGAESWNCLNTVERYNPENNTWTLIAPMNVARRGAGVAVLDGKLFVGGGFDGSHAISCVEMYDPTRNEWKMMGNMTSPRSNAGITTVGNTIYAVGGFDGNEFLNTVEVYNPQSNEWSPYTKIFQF
Assay: pull-down; GST fusion proteins (40 ug) immobilised on glutathione-sepharose 4B beads, incubated 1 h at room temperature with HEK293 lysates overexpressing GFP- or 2FLAG-tagged proteins; washed three times with PBS; anti-GFP or anti-FLAG western blot; only the target purified

binding: binds
Substance: GFP-KRIT1A (EGFP-tagged full-length KRIT1A, pEGFP-KRIT1A) (from UniProt O00522 1-736)
